Test results taken from PubChem BioAssay AID2685 (National Center for Advancing Translational Sciences (NCATS), 2010).
This is one part of the list. These are further read-outs of the screen, such as a control signal, another cell line or another target. No call is given for them. Most of these compounds were active or inconclusive in the main read-out, so they are no random draw. Potencies come from curve fits of mixed quality, noted in brackets.

Assay: qHTS Assay for Lipid Storage Modulators in Drosophila S3 Cells;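 on cell number change: cells counted by Cell Tracker Red CMTPX staining in the red channel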
Conditions: BODIPY lipid droplet fluorescence, 18-24 h; for cell number change: measured here: cell count max response, cells fed with added oleic acid
Outline: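 Drosophila S3 cells loaded with oleic acid (400 uM, as added) and compounds at several concentrations; lipid droplets imaged by 488-nm laser-scanning cytometry, 500–530 nm intensity and object ratio to cell channel. Percent activity normalized to 20 uM Triacsin C.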

[1] = measured here: lipid fluorescence (Fed channel) AC50, cells fed with added oleic acid
[2] = measured here: cell number channel AC50, cells fed with added oleic acid

In the case of `CC(=O)c1ccc(NC(=O)C2=CC(c3cccs3)=NS(=O)(=O)N2C)cc1`, the cell number change is reported as 12.5%.

With `Cc1cccc(/C=N/Nc2cc(N3CCOCC3)nc(N3CCOCC3)n2)c1` the AC50 [1] was 9.2 µM [rising, partial curve, poor fit].

For `O=[N+]([O-])c1ccc(CSc2nnc(SCc3ccccc3)s2)cc1`, the cell number change was -15.6%, the AC50 [2] was 0.461 µM [rising, single point] and the AC50 [1] was 8.2 µM [rising, partial curve, poor fit].

In the case of `O=C(CSc1ccccn1)Nc1ccc2c(c1)OCCO2`, the cell number change is reported as 41%, the AC50 [2] is reported as 6.51 µM [rising, partial curve, poor fit] and the AC50 [1] is reported as 6.51 µM [falling, single point].

With `O=C1CCC/C(=N\NC(=O)NC2CCCCC2)C1` the cell number change was 4.71% and the AC50 [2] was 0.1 µM [falling, partial curve, poor fit].

With `CC(=O)Nc1ccc(S(=O)(=O)NC(C)C(=O)OCC(=O)NC2CCCC2)cc1` (centres undefined) the cell number change was -35.5%, the AC50 [2] was 3.66 µM [falling, full curve] and the AC50 [1] was 1.46 µM [falling, full curve].

Molecule `CC(=O)Nc1ccc2c(c1)ncn2-c1ccccc1` has a cell number change of -16.8%.

Work on `CC(C(=O)Nc1ccc(Br)cc1)N(C)CC(=O)NCc1ccco1` (centres undefined) yielded a cell number change of -12.6%.

For `COc1ccc(C(=O)OCC(=O)c2ccc(Cl)s2)c(OC)c1OC`, the cell number change was 4.41%.

With `COc1ccc(OCc2n[nH]c(=S)o2)cc1` the cell number change was 18.7% and the AC50 [1] was 18.4 µM [rising, single point].

For `CC(=O)c1c(Nc2cccc(F)c2)oc(C)cc1=O`, the AC50 [1] was 18.4 µM [falling, partial curve].

For `Cc1ccc(C(=O)c2ccccc2C(=O)OCC(=O)NCC2CCCO2)cc1` (centres undefined), the cell number change was 84.6%, the AC50 [2] was 29.1 µM [rising, single point] and the AC50 [1] was 25.9 µM [rising, partial curve].

For `COCCCNC(=O)CCc1nc2cccnc2n1Cc1ccc(OC)cc1`, the cell number change was 52.2%, the AC50 [2] was 10.3 µM [rising, partial curve, poor fit] and the AC50 [1] was 6.51 µM [rising, single point].

In the case of `COc1ccc(C(=O)Nc2nc3ccccc3[nH]2)cc1S(=O)(=O)N1CCCC1`, the cell number change is reported as -8.23% and the AC50 [1] is reported as 0.58 µM [rising, single point].

For `COc1cccc2c1[C@@H]1CN(CCCCn3c(=O)[nH]c4c(sc5ncc(-c6ccccc6)nc54)c3=O)C[C@@H]1CO2`, the cell number change was 12.2% and the AC50 [1] was 18.4 µM [rising, single point].

In the case of `Nc1ccn(C2CC(O)C(CO)O2)c(=O)n1` (centres undefined), the cell number change is reported as 9.81% and the AC50 [1] is reported as 29.1 µM [rising, single point].

For `COC(=O)c1ccc(NC(=O)Nc2ccc([N+](=O)[O-])cc2)cc1`, the cell number change was -34.4%, the AC50 [2] was 16.4 µM [falling, single point] and the AC50 [1] was 11.6 µM [falling, partial curve].

For `O=C(Cn1nnc2ccccc2c1=O)NCc1ccco1`, the cell number change was -29.9%, the AC50 [2] was 0.146 µM [falling, full curve] and the AC50 [1] was 6.51 µM [falling, single point].

In the case of `O=C(CCNC(=O)c1ccc(Cl)cc1)NCC(c1ccco1)N1CCCC1` (centres undefined), the cell number change is reported as -8.84%.

In the case of `CCOc1ccc(S(=O)(=O)N2CCC(C(=O)Nc3cccc(NC(C)=O)c3)CC2)cc1`, the cell number change is reported as 18.9% and the AC50 [1] is reported as 29.1 µM [rising, single point].

With `CCN(CC)C(=O)CSc1nnc(CNc2ccc(F)cc2)n1Cc1ccco1` the cell number change was 1.12% and the AC50 [1] was 23.1 µM [rising, single point].

With `Cc1cn(C(=O)C(C)N2C(=O)c3ccccc3C2=O)c(C)n1` (centres undefined) the AC50 [1] was 0.731 µM [rising, single point].

In the case of `COc1ccc(Cn2c(N)c(C#N)c3nc4ccccc4nc32)cc1`, the cell number change is reported as -58.9% and the AC50 [2] is reported as 4.11 µM [falling, single point].

For `Cc1ccc2cc(CCNC(=O)CCCc3ccccc3)c(=O)[nH]c2c1`, the cell number change was 4.42% and the AC50 [1] was 29.1 µM [rising, single point].

With `CC1=NN(C(=O)c2ccc(Br)cc2)C(O)(C(F)(F)OC(F)(F)F)C1` (centres undefined) the cell number change was -30.1% and the AC50 [2] was 32.6 µM [falling, single point].

In the case of `O=C(Nc1cccc(S(=O)(=O)N2CCCCC2)c1)C1CCCN1S(=O)(=O)c1ccccc1F` (centres undefined), the cell number change is reported as -27.4% and the AC50 [1] is reported as 23.1 µM [falling, single point].

With `CCn1ncc(C2C(C(=O)Nc3ccc(C)cn3)=C(C)NC3=C2C(=O)CCC3)c1C` (centres undefined) the AC50 [1] was 1.64 µM [rising, partial curve].

In the case of `COc1cc(/C=N/NC(=O)c2ccccn2)cc2c1OCO2`, the cell number change is reported as 14.3% and the AC50 [1] is reported as 0.00517 µM [rising, full curve, poor fit].

In the case of `CCOC(=O)c1nc(Nc2ccc(C)cc2)c2ccccc2n1`, the cell number change is reported as -14.1% and the AC50 [1] is reported as 18.4 µM [rising, single point].

`CCCCC(=O)Nc1cc(C)c(NC(=O)c2ccco2)cn1` showed a cell number change of 15.3%.

With `CN(C)S(=O)(=O)n1cc(/C=C(\NC(=O)c2ccccc2F)C(=O)N2CCOCC2)c2ccccc21` the AC50 [1] was 6.51 µM [rising, single point].

In the case of `CC(C)Cn1c(N)c(C(=O)COC(=O)c2ccc(O)cc2O)c(=O)n(C)c1=O`, the cell number change is reported as 54% and the AC50 [2] is reported as 16.4 µM [rising, single point].

In the case of `C/C(=N\Nc1cccc2cccnc12)c1ccccn1`, the AC50 [1] is reported as 0.58 µM [falling, single point].

With `Cc1ccc2nc(N/C(=N/S(=O)(=O)c3cccs3)c3ccccc3Cl)sc2c1` the cell number change was 5.68% and the AC50 [2] was 0.00461 µM [rising, full curve, poor fit].

With `O=C(N/N=C/c1ccc2c(c1)OCO2)c1cccs1` the cell number change was -1.52% and the AC50 [1] was 0.164 µM [falling, full curve, poor fit].

For `Cc1[nH]c2ccccc2c1C(O)CN1CCN(c2cccc(C(F)(F)F)c2)CC1` (centres undefined), the cell number change was -35.8% and the AC50 [2] was 23.1 µM [falling, partial curve, poor fit].

In the case of `C/C(CCc1oc2ccc(Cl)cc2c1-c1ccc(C)o1)=N\O`, the cell number change is reported as -41.2% and the AC50 [2] is reported as 23.1 µM [falling, single point].

In the case of `Cc1cc(C(=O)CN2C(=O)NC3(CCCCC3)C2=O)c(C)n1Cc1ccc2c(c1)OCO2`, the cell number change is reported as -0.54% and the AC50 [1] is reported as 29.1 µM [rising, single point].

With `COc1cc2c(cc1OC)CN(CC(=O)Nc1ccccc1C(=O)NC1CC1)CC2` the cell number change was 7.35%, the AC50 [2] was 2.31 µM [rising, partial curve, poor fit] and the AC50 [1] was 10.3 µM [rising, partial curve, poor fit].
